Assay results as given in PMC4117776.
No constants are given. Whether binding was seen depends on the method and setting. In cells and extracts the contact can be indirect. Some entries that bind do so weakly or less than the wild type.

Target: T1, symplekin (mouse (endogenous in mouse ESCs)) (UniProt Q80X82)
T1 sequence: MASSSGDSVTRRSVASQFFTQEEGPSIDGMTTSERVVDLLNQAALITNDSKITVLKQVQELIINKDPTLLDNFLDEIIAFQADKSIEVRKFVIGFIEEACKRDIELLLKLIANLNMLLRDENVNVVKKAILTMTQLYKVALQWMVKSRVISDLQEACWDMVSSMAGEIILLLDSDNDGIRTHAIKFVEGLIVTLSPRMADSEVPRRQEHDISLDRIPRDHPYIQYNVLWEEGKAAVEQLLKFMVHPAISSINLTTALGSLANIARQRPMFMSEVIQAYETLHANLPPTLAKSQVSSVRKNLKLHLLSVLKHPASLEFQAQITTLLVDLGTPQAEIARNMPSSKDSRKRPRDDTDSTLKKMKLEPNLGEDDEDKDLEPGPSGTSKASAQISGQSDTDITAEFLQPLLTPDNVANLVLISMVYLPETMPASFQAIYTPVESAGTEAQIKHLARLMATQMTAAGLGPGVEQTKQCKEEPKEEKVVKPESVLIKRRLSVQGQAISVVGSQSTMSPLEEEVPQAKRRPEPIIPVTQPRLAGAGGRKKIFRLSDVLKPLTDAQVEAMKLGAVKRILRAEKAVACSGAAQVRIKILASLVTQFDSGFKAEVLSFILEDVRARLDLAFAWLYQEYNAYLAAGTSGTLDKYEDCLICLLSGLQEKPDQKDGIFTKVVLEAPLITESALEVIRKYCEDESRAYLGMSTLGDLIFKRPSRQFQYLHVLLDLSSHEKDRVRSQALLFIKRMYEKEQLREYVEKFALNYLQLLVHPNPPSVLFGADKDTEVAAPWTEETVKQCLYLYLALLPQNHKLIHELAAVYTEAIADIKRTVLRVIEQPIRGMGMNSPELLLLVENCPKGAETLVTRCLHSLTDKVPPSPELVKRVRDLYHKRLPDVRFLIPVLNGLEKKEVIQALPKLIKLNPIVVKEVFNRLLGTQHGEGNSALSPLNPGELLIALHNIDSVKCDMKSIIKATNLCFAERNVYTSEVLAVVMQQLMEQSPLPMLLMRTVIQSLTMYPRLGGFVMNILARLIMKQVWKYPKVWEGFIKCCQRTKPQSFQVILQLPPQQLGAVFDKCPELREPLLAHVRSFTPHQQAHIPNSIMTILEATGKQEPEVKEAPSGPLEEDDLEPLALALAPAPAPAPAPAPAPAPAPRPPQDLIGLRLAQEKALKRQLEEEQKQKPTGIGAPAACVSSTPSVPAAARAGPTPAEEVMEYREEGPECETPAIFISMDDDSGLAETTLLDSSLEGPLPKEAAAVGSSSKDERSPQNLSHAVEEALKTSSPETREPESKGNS
Assay: co-IP; immunoprecipitation with an anti-symplekin antibody from protein lysates of wild type and Cstf2^E6 mouse ESCs; western blot for CstF-64 and τCstF-64

Binder | binding
τCstF-64 (protein, UniProt Q8C7E9 1-632) MSSLAVRDPAMDRSLRSVFVGNIPYEATEEQLKDIFSEVGSVVSFRLVYDRETGKPKGYGFCEYQDQETALSAMRNLNGREFSGRALRVDNAASEKNKEELKSLGPAAPIIDSPYGDPIDPEDAPESITRAVASLPPEQMFELMKQMKLCVQNSHQEARNMLLQNPQLAYALLQAQVVMRIMDPEIALKILHRKIHVTPLIPGKSQPVSGPGPGGPGPSGPGGPGPGPAPGLCPGPNVMLNQQNPPAPQPQHLPRRPVKDIPPLMQTSIQGGIPAPGPIPAAVPGPGPGSLTPGGAMQPQVGMPVVGPVPLERGQMQISDPRPPMPRGPMPSGGIPPRGLLGDAPNDPRGGTLLSVTGEVEPRGYMGPPHQGPPMHHGHDNRGPASHDMRGGPLAADPRMLIGEPRGPMIDQRGLPMDGRGGRESRGMETRPMETEVLEPRGMERRMETCAMETRGMDARGLEMRGPGPSSRGPMTGGIQGPGPINMGAGGPQGPRQVPNIAGVGNPGGTMQGAGIQGGGMQGAGMQGGGMQGAGMQGGGMQGAGMQAGMQGASMQGGMQGAGMQGASKQGGGQPSSFSPGQSQVTPQDQEKAALIMQVLQLTADQIAMLPPEQRQSILILKEQIQKSTGAS | binds weakly
CstF-64 (protein, UniProt Q8BIQ5 1-580) MAGLPVRDPAVDRSLRSVFVGNIPYEATEEQLKDIFSEVGPVVSFRLVYDRETGKPKGYGFCEYQDQETALSAMRNLNGREFSGRALRVDNAASEKNKEELKSLGTGAPVIESPYGESISPEDAPESISKAVASLPPEQMFELMKQMKLCVQNSPQEARNMLLQNPQLAYALLQAQVVMRIVDPEIALKILHRQTNIPTLISGNPQPVHVAGPGSGPNVSMNQQNPQAPQAQSLGGMHVNGAPPMMQASMPGGVPAPVQMAAAVGGPGPGSLAPAGVMQAQVGMQGAGPVPMERGQVPMQDPRAAMQRGALPTNVPTPRGLLGDAPNDPRGGTLMTVTGDVEPRAYLGPPPPPHQGPPMHHVPGHEGRGPPPHDMRGGPLAEPRPLMAEPRGPMLDQRGPPLDARGGRDPRGLDARGMEARAMEARGLDARGLEARAMEARAMEARAMEARAMEARAMEARAMEARGMDTRGPVPGPRGPMPSGIQGPNPMNMGAVVPQGSRQVPVMQGAGMQGASMQGGSQPGGFSPGQSQVTPQDHEKAALIMQVLQLTADQIAMLPPEQRQSILILKEQIQKSTGAP | binds
